Results from article PMC6988918.
No constants are given. Whether binding was seen depends on the method and setting. Binding seen in cells or lysates may run through a third protein. These calls come from enrichment with a bait or labelling near it, and not all partners need be listed.

Molecular target: Akt (protein kinase B) (rat (endogenous in rat cardiomyocytes))
Assay: affinity purification with mass spectrometry; Akt precipitated with polyclonal Akt 1/2/3 antibody (sc-8312) and protein A-Sepharose from 1% NP-40 lysates of cardiomyocytes of control and MetS rats stimulated with 100 nM insulin for 10 min; label-free mass spectrometry of the immune complexes

Binder | binding
Long-chain specific acyl-CoA dehydrogenase (protein, UniProt P15650 31-430) GAEARLETPSAKKLTDIGIRRIFSSEHDIFRESVRKFFQEEVIPYHEEWEKAGEVSRELWEKAGKQGLLGINIAEKHGGIGGDLLSTAVTWEEQAYSNCTGPGFSLHSDIVMPYIANYGTKEQIEQFIPQMTAGKCIGAIAMTEPGAGSDLQGVRTNAKRSGSDWILNGSKVFITNGWLSDLVIVVAVTNREARSPAHGISLFLVENGMKGFIKGKKLHKMGMKAQDTAELFFEDVRLPASALLGEENKGFYYLMQELPQERLLIADLAISACEFMFEETRNYVRQRKAFGKTVAHIQTVQHKLAELKTNICVTRAFVDSCLQLHETKRLDSASASMAKYWASELQNTVAYQCVQLHGGWGYMWEYPIAKAYVDARVQPIYGGTNEIMKELIARQIVSDS | binds
Methylcrotonoyl-CoA carboxylase beta chain (protein, UniProt Q5XIT9 23-563) YHGDAVARLGTQPDSGSSTYQENYEQMKALVNQLHERAQYVRLGGSEKARARHTSRGKLLPRDRIDNLIDPGSPFLEFSQFAGYKLYGEEEVPAGGIITGIGRVSGVECMIVANDATVKGGTYYPVTVKKHVRAQEIALQNRLPCIYLVDSGGANLPRQADTFPDRDHFGRIFYNQAIMSSKNITQIAVVMGSCTAGGAYVPAMADENIIVQRQGTIFLAGPPLVKAATGEEVSAEDLGGADLHCRRSGVTDHYALDDHHALHLTRKVVRSLNYQKKLDVTVEPSEEPLFPADELYGIVGANLKRSFDVREVIARIVDGSRFNEFKALYGDTLVTGFARIFGYPVGIIGNNGVLFSESAKKGAHFVQLCCQRNIPLLFLQNITGFMVGKDYEAEGIAKDGAKMVAAVSCAKVPKITVIIGGSYGAGNYGMCGRAYSPRFLYMWPNARISVMGGEQAATVLATVARDQRAREGKQFSSAEEAALKEPIIKRFEEEGNPYYSSARLWDDGIIDPVDTRLVLGLSISAALNAPIQRTDFGIFRM | binds
Solute carrier family 25 member 31 (protein, UniProt D3ZB81 1-293) MSNNSSKKQSSKKTLFDPVSFAKDLLAGGVAAAVSKTAVAPIERVKLLLQVQASSKQISPEARYKGMIDCLVRIPREQGFLSYWRGNLANVIRYFPTQALNFAFKDKYKQLFMSGVNKEKQFWRWFLANLASGGAAGATSLCVVYPLDFARTRLGVDIGKGPEQRQFTGLGDCIMKIAKSDGLIGLYQGFGVSVQGIIVYRASYFGAYDTVKGLLPKPKETPFLISFIIAQIVTTGSGILSYPFDTVRRRMMMQSGESERQYKGTIDCFLKIYNHEGMAAFFRGAFSNILRVI | binds
ADP/ATP translocase 2 (protein, UniProt Q09073 1-298) MTDAAVSFAKDFLAGGVAAAISKTAVAPIERVKLLLQVQHASKQITADKQYKGIIDCVVRIPKEQGVLSFWRGNLANVIRYFPTQALNFAFKDKYKQIFLGGVDKRTQFWRYFAGNLASGGAAGATSLCFVYPLDFARTRLAADVGKAGAEREFKGLGDCLVKIYKSDGIKGLYQGFNVSVQGIIIYRAAYFGIYDTAKGMLPDPKNTHIFISWMIAQSVTAVAGLTSYPFDTVRRRMMMQSGRKGTDIMYTGTLDCWRKIARDEGGKAFFKGAWSNVLRGMGGAFVLVLYDEIKKYT | binds
Pyruvate dehydrogenase E1 component subunit alpha (protein, UniProt P26284 30-390) FANDATFEIKKCDLHRLEEGPPVTTVLTREDGLKYYRMMQTVRRMELKADQLYKQKIIRGFCHLCDGQEACCVGLEAGINPTDHLITAYRAHGFTFNRGHAVRAILAELTGRRGGCAKGKGGSMHMYAKNFYGGNGIVGAQVPLGAGIALACKYNGKDEVCLTLYGDGAANQGQIFEAYNMAALWKLPCIFICENNRYGMGTSVERAAASTDYYKRGDFIPGLRVDGMDILCVREATKFAAAYCRSGKGPILMELQTYRYHGHSMSDPGVSYRTREEIQEVRSKSDPIMLLKDRMVNSNLASVEELKEIDVEVRKEIEDAAQFATADPEPPLEELGYHIYSSDPPFEVRGANQWIKFKSVS | binds
Aspartate aminotransferase, mitochondrial (protein, UniProt P00507 30-430) SSWWTHVEMGPPDPILGVTEAFKRDTNSKKMNLGVGAYRDDNGKPYVLPSVRKAEAQIAGKNLDKEYLPIGGLADFCKASAELALGENSEVLKSGRFVTVQTISGTGALRVGASFLQRFFKFSRDVFLPKPSWGNHTPIFRDAGMQLQGYRYYDPKTCGFDFSGALEDISKIPEQSVLLLHACAHNPTGVDPRPEQWKEMAAVVKKKNLFAFFDMAYQGFASGDGDKDAWAVRHFIEQGINVCLCQSYAKNMGLYGERVGAFTVVCKDAEEAKRVESQLKILIRPLYSNPPLNGARIAATILTSPDLRKQWLQEVKGMADRIISMRTQLVSNLKKEGSSHNWQHITDQIGMFCFTGLKPEQVERLTKEFSVYMTKDGRISVAGVTSGNVGYLAHAIHQVTK | binds
Pyruvate dehydrogenase E1 component subunit beta (protein, UniProt P49432 31-359) VQLTVREAINQGMDEELERDEKVFLLGEEVAQYDGAYKVSRGLWKKYGDKRIIDTPISEMGFAGIAVGAAMAGLRPICEFMTFNFSMQAIDQVINSAAKTYYMSAGLQPVPIVFRGPNGASAGVAAQHSQCFAAWYGHCPGLKVVSPWNSEDAKGLIKSAIRDDNPVVMLENELMYGVAFELPTEAQSKDFLIPIGKAKIERQGTHITVVAHSRPVGHCLEAAAVLSKEGIECEVINLRTIRPMDIEAIEASVMKTNHLVTVEGGWPQFGVGAEICARIMEGPAFNFLDAPAVRVTGADVPMPYAKILEDNSIPQVKDIIFAIKKTLNI | binds
Transmembrane protein 143 (protein, UniProt D3ZSD8 1-458) MTVARWLRLWEKGQAMLHVTWGSRVRVWSLVPALLGTPRALSSLENRMGAYRKMWNPKEPCNWAQQYRERFIPFSREQLLRLLIQEFHSSPAERAALEAFSAHVDFCTLSHYHQLLARLQALYDPINPDRETLDQPSLTDPERLSSEKEVLQALKPLLAQANFSPLSEDALAYALVVHHPQDEVQVTINLDQYIYIQFWALGQRVGQMPHKSSVGSKRGFFRKLPPVERRYFKRVVLAARTKGGHLVLKSFKDTPLEGLEQLLPELKVRTPMMQRALLNLMLVVSGVVFFVNVGMVILSDLKMATSLLLLLFAAFMGIRASKVFGQRRSAQALELAHMLYYRSTSNNSELLSALALRAQEEHIKEALLAHSFLGRQPGGPQGTPEETSRWLQSEVESWLLAQSGCDVTFNGPRALAHLQALTPSFGLFPPPELPQLDPLVLGTPEAPQAALGSSYPSP | binds
ADP/ATP translocase 1 (protein, UniProt Q05962 1-298) MGDQALSFLKDFLAGGIAAAVSKTAVAPIERVKLLLQVQHASKQISAEKQYKGIIDCVVRIPKEQGFLSFWRGNLANVIRYFPTQALNFAFKDKYKQIFLGGVDRHKQFWRYFAGNLASGGAAGATSLCFVYPLDFARTRLAADVGKGSSQREFNGLGDCLTKIFKSDGLKGLYQGFSVSVQGIIIYRAAYFGVYDTAKGMLPDPKNVHIIVSWMIAQSVTAVAGLVSYPFDTVRRRMMMQSGRKGADIMYTGTVDCWRKIAKDEGRKAFFKGAWSNVLRGMGGAFVLVLYDEIKKYV | binds
Trifunctional enzyme subunit beta, mitochondrial (protein, UniProt Q60587 35-475) SAPAVQTKSKKTLAKPNLKNIVVVEGVRIPFLLSGTSYKDLMPHDLARAALSGLLYRTNIPKDVVDYIIFGTVIQEVKTSNVAREAALGAGFSDKTPAHTVTMACISSNQAMTTAVGLIASGQCDVVVAGGVELMSDVPIRHSRNMRKMMLDLNKAKTLAQRLSLLTKFRLNFLSPELPAVAEFSTNETMGHSADRLAAAFAVSRMEQDKYALRSHSLAKKAQDEGHLSDIVPFKVPGKDTVSKDNGIRPSSLEQMAKLKPAFIKPYGTVTAANSSFLTDGASAMLIMSEDRALAMGYKPKAYLRDFIYVSQDPKDQLLLGPTYATPKVLEKAGLTMNDIDAFEFHEAFSGQILANFKAMDSDWFAQNYMGRKTKVGAPPLEKFNIWGGSLSLGHPFGATGCRLVMAAANRLRKDGGQYALVAACAAGGQGHAMIVEAYPK | binds
